Assay results reported in article PMC11045800.
No constants are given. Whether binding was seen depends on the method and setting. In cells and extracts the contact can be indirect. Binding calls can cover weak binding; strength is not graded here. Where a sequence is shown, tags or fusion partners need not be part of it.

Molecular target: T1, Myc-tagged recombinant PERK (mouse) (UniProt Q9Z2B5)
T1 sequence: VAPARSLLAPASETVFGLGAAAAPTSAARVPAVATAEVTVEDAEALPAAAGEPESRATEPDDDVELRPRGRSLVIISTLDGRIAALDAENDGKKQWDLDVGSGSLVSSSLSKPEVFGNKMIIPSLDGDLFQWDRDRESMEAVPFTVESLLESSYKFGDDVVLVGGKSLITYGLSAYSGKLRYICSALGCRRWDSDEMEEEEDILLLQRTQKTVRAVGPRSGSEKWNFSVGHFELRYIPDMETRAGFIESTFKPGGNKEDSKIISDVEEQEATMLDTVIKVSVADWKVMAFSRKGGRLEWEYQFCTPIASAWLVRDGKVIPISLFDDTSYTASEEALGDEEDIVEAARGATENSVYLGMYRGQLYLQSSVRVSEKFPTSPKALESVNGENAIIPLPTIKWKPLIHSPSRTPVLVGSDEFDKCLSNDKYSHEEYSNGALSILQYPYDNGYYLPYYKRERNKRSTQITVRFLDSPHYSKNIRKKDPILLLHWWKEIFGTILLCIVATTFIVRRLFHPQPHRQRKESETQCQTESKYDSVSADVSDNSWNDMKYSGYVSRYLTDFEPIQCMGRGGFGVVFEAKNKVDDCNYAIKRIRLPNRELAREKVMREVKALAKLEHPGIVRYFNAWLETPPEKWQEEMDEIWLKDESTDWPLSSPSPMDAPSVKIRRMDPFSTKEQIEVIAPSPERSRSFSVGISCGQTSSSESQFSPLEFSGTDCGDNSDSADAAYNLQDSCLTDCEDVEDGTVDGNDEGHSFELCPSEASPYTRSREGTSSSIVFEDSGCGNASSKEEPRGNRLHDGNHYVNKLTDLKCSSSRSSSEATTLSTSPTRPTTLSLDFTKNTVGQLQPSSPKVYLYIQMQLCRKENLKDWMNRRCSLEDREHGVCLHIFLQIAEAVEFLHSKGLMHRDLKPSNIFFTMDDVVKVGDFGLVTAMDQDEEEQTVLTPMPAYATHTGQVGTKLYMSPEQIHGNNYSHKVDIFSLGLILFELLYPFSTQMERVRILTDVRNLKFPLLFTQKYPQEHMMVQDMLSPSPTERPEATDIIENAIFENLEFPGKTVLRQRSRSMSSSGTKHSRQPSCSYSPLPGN
Assay: co-IP; in vitro: HA- and Myc-tagged proteins purified from transfected HEK293T cells (eluted from anti-HA or anti-Myc beads), incubated together for 2 h, precipitated with anti-Myc beads, blot with anti-HA; both purified

binding: binds
Substance: HA-tagged TRIM29 C mutant (C-terminal domain of TRIM29) (domain or fragment)
